For assay [1], the target named is T1, Protein Disulfide Isomerase5 (PDI5) (Arabidopsis) (UniProt Q9XI01).
T1 sequence: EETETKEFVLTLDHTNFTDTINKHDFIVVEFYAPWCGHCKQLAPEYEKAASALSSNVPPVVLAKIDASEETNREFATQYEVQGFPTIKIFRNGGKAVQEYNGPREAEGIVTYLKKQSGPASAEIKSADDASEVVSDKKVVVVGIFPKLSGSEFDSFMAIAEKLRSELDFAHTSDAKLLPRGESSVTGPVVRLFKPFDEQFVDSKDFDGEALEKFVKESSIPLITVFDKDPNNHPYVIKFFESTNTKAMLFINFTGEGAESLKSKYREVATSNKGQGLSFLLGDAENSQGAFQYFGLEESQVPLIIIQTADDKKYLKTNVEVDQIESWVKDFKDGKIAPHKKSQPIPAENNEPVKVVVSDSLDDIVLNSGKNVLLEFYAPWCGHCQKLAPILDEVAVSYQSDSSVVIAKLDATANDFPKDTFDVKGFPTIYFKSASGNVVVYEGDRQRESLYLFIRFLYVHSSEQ
Nature of the assay: BiFC in seedlings.

The chains behind the UniProt entries cited, without tags or fusion partners. Residues count along the entry.
UniProt P43297, residues 22-462: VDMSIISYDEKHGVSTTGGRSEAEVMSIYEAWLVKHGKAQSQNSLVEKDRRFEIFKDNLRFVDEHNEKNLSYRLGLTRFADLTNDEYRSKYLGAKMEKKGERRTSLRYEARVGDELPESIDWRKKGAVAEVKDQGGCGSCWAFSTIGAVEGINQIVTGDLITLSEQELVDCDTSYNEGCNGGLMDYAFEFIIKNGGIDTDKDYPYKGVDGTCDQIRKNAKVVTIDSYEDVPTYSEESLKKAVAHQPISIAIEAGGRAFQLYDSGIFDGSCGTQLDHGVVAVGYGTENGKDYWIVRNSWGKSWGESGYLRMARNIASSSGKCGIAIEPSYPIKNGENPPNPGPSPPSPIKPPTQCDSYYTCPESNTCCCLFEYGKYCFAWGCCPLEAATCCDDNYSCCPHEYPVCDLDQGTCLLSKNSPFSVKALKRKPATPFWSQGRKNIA

For assay [2], the target named is T2, AFL1 N-terminal fragment (amino acids 1 to 208) (Arabidopsis) (UniProt Q9LHD9).
T2 sequence: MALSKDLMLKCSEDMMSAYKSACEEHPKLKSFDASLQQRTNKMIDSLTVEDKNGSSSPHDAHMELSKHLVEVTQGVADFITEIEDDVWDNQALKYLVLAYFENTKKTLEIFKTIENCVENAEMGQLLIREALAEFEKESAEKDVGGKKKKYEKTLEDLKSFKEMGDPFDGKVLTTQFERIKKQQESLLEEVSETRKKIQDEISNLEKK
Description: yeast two hybrid library screen.

Assay [3] has as its target T2, AFL1 N-terminal fragment (amino acids 1 to 208) (Arabidopsis). Nature of the assay: yeast two hybrid library screen (AFL1 N-terminus).
The target is the same in assay [4]. Description: yeast two hybrid, beta-galactosidase filter assay, full-length prey.
The target in assay [5] is T3, YFP-AFL1 (Arabidopsis) (UniProt Q9LHD9).
T3 sequence: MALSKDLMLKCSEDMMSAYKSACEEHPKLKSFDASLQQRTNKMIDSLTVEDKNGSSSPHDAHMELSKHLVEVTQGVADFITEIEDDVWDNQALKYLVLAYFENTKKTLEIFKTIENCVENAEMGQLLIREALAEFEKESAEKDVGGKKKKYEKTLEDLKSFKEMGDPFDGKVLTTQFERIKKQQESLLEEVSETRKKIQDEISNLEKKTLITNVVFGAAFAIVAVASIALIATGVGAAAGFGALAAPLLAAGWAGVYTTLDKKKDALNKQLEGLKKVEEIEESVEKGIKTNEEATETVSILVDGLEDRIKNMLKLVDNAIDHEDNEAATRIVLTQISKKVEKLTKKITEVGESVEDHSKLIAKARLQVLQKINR
Nature of the assay: Co-IP (FIG. 3 panel C).

In assay [6] the target is T3, YFP-AFL1 (Arabidopsis). Description: Co-IP of PDI5-FLAG with YFP-AFL1.
In assay [7] the target is T3, YFP-AFL1 (Arabidopsis). Nature of the assay: Co-IP (GFP-trap pull-down of YFP-AFL1, immunoblot). In general terms: Immunoblotting shows a protein as a band on a membrane.
Assay [8] has as its target T2, AFL1 N-terminal fragment (amino acids 1 to 208) (Arabidopsis). Nature of the assay: protein interaction data (yeast two hybrid).

No constants are given. Whether binding was seen depends on the method and setting. For some assays here: Binding seen in cells or lysates may run through a third protein. Some entries that bind do so weakly or less than the wild type. For some assays here: Where a sequence is shown, tags or fusion partners need not be part of it.

In the case of “RD21 (from UniProt P43297 22-462) (enzyme)”, in assay [1], the binding result was “binds”.

B1: Protein Disulfide Isomerase5 (PDI5) (enzyme)
chain: T1 sequence
Turning to B1, the binding entry in assay [2], in assay [3] and in assay [4] was “binds” in each case.

B2: PDI5-FLAG (enzyme, not shown: small tags and cut ends)
chain: T1 sequence
Consider B2, for which the binding entry in assay [5], in assay [6] and in assay [7] was “binds” throughout.

B3: C-terminal clones of At14a (protein)
chain: GVHTILENKIQAREKQEEALKKAHRIANEMDKGMETDKVDMNSISGKVHALKSKITSMLNAVKDATEDGANEVDTKQVMETLTGDVVELTEDIKAVGDDVAKYSKMIEETSYHVLQKITGSGK
Take B3: the binding result in assay [3] was “binds”.

B4: partial cDNA clones containing the C-terminal domain of AFL1 but not the two predicted helices (protein)
chain: VYTTLDKKKDALNKQLEGLKKVEEIEESVEKGIKTNEEATETVSILVDGLEDRIKNMLKLVDNAIDHEDNEAATRIVLTQISKKVEKLTKKITEVGESVEDHSKLIAKARLQVLQKINR
For the molecule B4, the binding result in assay [2], in assay [8] and in assay [3] was “binds” in each case.

(Values after US20160090605A1 (ACADEMIA SINICA, published 2016).)
